In the supplement of paper PMC6411743:
± gives the standard deviation of the averaged measurements. The list shows a part of the results.

By UniProt entry, the sequences of proteins in these tests, tags left out. Where a name states a change or a piece, a line headed by the entry shows the natural chain unless it says otherwise.
UniProt O43708: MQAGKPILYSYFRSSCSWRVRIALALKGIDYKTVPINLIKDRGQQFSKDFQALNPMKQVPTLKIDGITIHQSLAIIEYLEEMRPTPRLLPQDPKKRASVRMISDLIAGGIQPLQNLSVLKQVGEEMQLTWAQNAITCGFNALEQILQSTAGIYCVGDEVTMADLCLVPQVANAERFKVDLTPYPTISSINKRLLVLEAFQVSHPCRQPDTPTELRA
UniProt P29558: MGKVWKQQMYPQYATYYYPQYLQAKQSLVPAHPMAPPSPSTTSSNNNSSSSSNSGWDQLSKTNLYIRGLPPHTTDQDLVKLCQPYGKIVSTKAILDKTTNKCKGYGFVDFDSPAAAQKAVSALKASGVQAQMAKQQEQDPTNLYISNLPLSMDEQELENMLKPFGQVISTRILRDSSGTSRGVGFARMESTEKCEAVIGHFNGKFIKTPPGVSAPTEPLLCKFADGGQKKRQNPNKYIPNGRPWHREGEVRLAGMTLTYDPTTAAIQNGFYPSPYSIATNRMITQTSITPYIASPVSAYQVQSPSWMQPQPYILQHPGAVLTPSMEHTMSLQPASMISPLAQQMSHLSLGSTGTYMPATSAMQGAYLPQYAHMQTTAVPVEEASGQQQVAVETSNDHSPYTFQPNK
UniProt P61421, whole entry: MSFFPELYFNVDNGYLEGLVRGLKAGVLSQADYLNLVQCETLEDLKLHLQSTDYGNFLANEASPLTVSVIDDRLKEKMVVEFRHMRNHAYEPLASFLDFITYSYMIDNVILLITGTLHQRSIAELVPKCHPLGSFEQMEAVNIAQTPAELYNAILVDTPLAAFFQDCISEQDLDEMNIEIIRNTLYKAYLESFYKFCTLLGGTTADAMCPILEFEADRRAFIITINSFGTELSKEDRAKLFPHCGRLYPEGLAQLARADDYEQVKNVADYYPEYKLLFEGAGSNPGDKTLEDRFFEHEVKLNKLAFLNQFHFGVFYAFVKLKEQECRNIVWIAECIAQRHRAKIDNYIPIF
UniProt Q07864, whole entry: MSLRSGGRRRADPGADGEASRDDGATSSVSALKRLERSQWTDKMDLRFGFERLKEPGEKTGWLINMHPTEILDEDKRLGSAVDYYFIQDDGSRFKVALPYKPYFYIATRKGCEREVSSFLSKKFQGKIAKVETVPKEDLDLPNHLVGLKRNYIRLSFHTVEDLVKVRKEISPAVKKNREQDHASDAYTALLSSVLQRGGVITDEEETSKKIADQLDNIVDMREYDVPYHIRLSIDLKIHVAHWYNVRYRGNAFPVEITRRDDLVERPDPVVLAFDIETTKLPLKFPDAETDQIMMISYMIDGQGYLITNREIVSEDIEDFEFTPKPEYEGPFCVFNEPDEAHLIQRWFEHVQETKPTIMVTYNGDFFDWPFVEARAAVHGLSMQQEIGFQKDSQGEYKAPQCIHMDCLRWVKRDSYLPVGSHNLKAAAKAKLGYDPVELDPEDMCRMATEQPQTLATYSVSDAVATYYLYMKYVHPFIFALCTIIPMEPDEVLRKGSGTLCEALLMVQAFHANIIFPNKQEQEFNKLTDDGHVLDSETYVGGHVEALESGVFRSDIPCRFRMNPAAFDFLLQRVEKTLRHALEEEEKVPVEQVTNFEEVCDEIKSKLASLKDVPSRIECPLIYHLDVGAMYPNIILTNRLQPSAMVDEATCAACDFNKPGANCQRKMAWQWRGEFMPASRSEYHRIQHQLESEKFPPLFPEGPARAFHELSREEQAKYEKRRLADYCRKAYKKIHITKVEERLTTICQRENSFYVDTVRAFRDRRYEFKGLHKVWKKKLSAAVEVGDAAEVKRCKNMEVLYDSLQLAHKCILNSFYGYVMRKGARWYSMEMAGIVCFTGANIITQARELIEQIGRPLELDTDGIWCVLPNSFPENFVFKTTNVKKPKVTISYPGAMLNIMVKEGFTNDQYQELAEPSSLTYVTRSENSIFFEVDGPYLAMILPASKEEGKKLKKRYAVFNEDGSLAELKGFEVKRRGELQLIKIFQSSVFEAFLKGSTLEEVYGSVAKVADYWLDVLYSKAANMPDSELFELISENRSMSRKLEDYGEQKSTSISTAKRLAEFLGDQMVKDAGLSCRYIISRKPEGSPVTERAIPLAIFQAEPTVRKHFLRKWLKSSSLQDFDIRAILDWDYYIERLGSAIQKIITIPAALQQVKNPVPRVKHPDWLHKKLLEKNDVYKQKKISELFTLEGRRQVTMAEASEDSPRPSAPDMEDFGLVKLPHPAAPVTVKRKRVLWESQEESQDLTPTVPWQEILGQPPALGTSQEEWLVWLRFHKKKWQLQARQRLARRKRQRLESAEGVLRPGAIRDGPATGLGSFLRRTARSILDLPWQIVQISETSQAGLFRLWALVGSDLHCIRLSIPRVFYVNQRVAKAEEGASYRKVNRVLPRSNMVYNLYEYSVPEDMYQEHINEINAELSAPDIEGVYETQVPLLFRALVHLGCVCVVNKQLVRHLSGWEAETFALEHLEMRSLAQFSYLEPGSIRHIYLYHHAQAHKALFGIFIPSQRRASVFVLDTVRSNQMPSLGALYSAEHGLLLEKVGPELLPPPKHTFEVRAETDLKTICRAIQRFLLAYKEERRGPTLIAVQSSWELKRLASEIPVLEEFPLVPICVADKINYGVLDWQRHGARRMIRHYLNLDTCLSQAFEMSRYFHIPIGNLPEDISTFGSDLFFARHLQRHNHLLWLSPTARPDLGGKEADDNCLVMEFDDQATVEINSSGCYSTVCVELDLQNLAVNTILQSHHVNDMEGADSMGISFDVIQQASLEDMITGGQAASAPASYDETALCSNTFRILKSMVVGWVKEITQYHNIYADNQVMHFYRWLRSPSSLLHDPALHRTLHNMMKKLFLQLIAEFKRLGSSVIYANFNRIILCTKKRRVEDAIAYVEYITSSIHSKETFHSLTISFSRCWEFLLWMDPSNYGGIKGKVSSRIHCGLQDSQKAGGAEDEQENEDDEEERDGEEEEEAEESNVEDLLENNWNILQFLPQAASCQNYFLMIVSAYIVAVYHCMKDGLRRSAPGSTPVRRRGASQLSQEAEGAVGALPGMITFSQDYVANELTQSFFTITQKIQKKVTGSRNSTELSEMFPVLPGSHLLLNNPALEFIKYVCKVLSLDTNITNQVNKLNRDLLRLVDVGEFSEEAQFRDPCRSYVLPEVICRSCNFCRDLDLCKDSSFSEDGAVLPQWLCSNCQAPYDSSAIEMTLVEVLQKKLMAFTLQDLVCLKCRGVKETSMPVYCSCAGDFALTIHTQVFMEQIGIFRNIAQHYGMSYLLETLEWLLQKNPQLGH
UniProt P17480: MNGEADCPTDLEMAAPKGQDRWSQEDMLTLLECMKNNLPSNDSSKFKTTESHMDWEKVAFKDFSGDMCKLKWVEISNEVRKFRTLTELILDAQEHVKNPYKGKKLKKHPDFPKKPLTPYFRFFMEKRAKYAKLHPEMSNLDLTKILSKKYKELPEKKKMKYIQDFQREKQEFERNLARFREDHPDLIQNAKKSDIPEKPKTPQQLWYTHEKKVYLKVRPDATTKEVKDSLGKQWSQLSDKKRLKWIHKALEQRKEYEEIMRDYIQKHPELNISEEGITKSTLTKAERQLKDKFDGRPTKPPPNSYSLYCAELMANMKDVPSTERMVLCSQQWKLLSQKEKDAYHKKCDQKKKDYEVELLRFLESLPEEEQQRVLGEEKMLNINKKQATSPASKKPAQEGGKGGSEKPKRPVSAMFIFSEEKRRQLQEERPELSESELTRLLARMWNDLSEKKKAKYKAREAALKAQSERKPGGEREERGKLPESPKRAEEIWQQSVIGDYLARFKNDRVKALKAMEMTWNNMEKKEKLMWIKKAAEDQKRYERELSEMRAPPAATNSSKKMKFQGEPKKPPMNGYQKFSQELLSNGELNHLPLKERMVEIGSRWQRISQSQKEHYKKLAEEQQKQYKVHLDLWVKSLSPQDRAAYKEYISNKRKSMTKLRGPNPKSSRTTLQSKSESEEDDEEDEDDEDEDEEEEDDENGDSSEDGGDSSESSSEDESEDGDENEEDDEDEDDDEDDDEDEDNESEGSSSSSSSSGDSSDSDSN
UniProt Q96KG9: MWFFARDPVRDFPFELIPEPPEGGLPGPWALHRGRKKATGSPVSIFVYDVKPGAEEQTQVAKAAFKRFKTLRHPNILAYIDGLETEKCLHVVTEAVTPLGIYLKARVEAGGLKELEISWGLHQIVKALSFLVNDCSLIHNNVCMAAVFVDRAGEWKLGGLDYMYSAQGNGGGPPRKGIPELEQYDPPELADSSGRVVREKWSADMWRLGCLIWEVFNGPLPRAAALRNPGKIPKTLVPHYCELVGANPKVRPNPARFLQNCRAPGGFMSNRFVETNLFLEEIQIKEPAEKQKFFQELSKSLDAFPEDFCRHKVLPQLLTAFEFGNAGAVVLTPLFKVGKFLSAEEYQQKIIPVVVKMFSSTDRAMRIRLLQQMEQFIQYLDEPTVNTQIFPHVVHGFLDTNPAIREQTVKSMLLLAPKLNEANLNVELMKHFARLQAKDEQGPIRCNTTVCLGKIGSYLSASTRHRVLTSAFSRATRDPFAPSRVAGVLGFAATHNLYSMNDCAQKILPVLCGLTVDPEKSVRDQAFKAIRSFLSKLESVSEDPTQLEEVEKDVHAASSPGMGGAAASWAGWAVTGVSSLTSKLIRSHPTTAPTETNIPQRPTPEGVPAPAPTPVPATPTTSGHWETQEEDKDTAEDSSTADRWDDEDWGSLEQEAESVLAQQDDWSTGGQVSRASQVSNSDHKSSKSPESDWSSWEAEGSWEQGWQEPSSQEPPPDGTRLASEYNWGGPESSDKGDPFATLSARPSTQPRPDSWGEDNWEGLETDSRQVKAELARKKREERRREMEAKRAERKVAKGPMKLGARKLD
UniProt O95619, whole entry: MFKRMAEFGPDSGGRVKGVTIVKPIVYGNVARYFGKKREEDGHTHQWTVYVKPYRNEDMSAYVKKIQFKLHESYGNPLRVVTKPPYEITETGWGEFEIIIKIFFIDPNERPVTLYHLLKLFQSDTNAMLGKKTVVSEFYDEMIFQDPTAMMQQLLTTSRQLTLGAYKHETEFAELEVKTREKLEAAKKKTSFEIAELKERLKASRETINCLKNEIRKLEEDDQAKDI
UniProt P27695, whole entry: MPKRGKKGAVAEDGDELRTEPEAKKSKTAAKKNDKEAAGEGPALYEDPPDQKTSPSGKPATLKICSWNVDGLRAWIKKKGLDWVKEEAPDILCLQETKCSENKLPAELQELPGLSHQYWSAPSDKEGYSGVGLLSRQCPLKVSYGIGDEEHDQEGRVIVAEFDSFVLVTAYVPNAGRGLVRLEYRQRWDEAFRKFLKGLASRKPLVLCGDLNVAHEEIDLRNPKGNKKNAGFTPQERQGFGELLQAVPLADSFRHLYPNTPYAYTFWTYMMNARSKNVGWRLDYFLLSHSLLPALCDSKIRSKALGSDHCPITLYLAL
UniProt A2RUS2: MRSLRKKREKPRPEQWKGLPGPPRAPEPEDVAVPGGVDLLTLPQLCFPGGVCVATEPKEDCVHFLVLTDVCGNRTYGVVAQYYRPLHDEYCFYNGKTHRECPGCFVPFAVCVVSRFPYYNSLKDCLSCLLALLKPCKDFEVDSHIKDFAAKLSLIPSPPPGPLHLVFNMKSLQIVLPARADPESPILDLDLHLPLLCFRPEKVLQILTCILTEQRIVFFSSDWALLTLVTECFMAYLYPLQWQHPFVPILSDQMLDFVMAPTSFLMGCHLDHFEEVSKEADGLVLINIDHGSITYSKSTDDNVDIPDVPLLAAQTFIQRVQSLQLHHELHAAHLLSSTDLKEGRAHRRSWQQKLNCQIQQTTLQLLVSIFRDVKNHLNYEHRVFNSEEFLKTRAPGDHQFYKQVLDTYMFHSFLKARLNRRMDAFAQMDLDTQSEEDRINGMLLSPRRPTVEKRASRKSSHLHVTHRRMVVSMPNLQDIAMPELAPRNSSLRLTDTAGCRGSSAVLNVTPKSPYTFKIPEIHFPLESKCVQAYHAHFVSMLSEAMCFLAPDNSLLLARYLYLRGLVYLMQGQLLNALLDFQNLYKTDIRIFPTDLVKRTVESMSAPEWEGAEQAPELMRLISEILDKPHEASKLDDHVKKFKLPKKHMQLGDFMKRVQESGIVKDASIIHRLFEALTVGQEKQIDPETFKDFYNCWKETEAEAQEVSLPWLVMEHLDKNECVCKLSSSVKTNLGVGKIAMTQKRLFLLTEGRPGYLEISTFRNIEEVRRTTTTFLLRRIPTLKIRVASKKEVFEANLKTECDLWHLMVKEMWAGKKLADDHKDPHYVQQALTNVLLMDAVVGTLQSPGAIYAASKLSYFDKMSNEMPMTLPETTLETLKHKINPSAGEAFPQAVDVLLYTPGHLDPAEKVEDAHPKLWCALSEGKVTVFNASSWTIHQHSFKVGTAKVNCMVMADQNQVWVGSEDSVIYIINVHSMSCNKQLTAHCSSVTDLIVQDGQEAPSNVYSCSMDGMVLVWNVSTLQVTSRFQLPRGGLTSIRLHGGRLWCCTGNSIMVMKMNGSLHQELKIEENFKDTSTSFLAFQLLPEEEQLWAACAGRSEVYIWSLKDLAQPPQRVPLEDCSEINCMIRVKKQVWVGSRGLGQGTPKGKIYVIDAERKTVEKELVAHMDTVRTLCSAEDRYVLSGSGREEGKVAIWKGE

Compound: Nc1nc2c(ncn2[C@@H]2O[C@H](COP(=O)(O)OP(=O)(O)OP(=O)(O)O)[C@@H](O)[C@H]2O)c(=O)[nH]1 [guanosine triphosphate]
Assay: NP40-soluble protein abundance relative to vehicle (solubility fold change) (ratio); higher = more soluble protein in presence of GTP
In short: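 Jurkat crude lysate prepared with a Dounce homogeniser was treated at eight concentrations spanning 0.1 to 10 mM, 10 min at room temperature then 3 min at 37 °C. Solubilisation with 0.8% NP40 and benzonase and ultracentrifugation preceded TMT labelling of the supernatant for LC-MS/MS. Fold change against the detergent-processed vehicle was determined per replicate from vsn-normalised intensities, across three independent experiments.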

Target | NP40-soluble protein abundance (concentration: 0.1mM) | NP40-soluble protein abundance (concentration: 0.5mM) | NP40-soluble protein abundance (concentration: 1mM) | NP40-soluble protein abundance (concentration: 2mM) | NP40-soluble protein abundance (concentration: 4mM) | NP40-soluble protein abundance (concentration: 6mM) | NP40-soluble protein abundance (concentration: 8mM) | NP40-soluble protein abundance (concentration: 10mM)
E9PI99 and related entries (UniProt Q13952) | 0.889 ± 0.014 | 0.887 ± 0.037 | 0.929 ± 0.025 | 0.925 ± 0.021 | 0.945 ± 0.039 | 0.928 ± 0.025 | 0.892 ± 0.035 | 0.919 ± 0.031
E9PJ55 and related entries (UniProt Q9NUJ3) | 1.07 ± 0.067 | 1.08 ± 0.073 | 1.08 ± 0.064 | 1.03 ± 0.013 | 1.06 ± 0.052 | 1.02 ± 0.044 | 0.977 ± 0.11 | 0.958 ± 0.13
G3V5T0 and related entries (UniProt O43708) | 0.95 ± 0.046 | 0.961 ± 0.087 | 0.879 ± 0.058 | 0.867 ± 0.063 | 0.848 ± 0.068 | 0.854 ± 0.076 | 0.819 ± 0.096 | 0.815 ± 0.091
E9PDF6 and related entries (UniProt O43795) | 1.44 ± 0.25 | 2.35 ± 0.38 | 2.32 ± 0.37 | 2.41 ± 0.43 | 2.4 ± 0.41 | 2.37 ± 0.38 | 2.33 ± 0.3 | 2.21 ± 0.26
E7ETU5 and related entries (UniProt P29558) | 0.915 ± 0.077 | 0.945 ± 0.017 | 0.982 ± 0.057 | 0.956 ± 0.087 | 0.927 ± 0.041 | 0.943 ± 0.088 | 0.952 ± 0.02 | 0.958 ± 0.06
F8W1T6 and related entries (UniProt Q15434) | 0.955 ± 0.056 | 0.922 ± 0.069 | 0.99 ± 0.042 | 0.933 ± 0.089 | 0.961 ± 0.11 | 0.911 ± 0.15 | 0.949 ± 0.12 | 0.935 ± 0.098
F5GYQ1 and related entries (UniProt P61421) | 1.06 ± 0.036 | 1.12 ± 0.12 | 1.07 ± 0.13 | 1.09 ± 0.13 | 1.08 ± 0.11 | 1.1 ± 0.15 | 1.07 ± 0.12 | 1.03 ± 0.11
F8VS36 and related entries (UniProt Q92994) | 1.09 ± 0.11 | 1.01 ± 0.058 | 1.06 ± 0.096 | 1.03 ± 0.078 | 0.999 ± 0.058 | 1.03 ± 0.02 | 1.03 ± 0.12 | 1 ± 0.12
F5H1D6 and related entries (UniProt Q07864) | 1.12 ± 0.086 | 1.11 ± 0.049 | 1.09 ± 0.071 | 1.14 ± 0.047 | 1.1 ± 0.067 | 1.11 ± 0.023 | 1.14 ± 0.06 | 0.994 ± 0.069
F8W6N3 and related entries (UniProt Q92560) | 0.959 ± 0.067 | 0.997 ± 0.14 | 1.03 ± 0.093 | 1.05 ± 0.14 | 1.06 ± 0.11 | 1.09 ± 0.085 | 1.09 ± 0.13 | 1.08 ± 0.17
E9PJN1 and related entries (UniProt O75676) | 1.18 ± 0.19 | 1.17 ± 0.15 | 1.2 ± 0.31 | 1.22 ± 0.26 | 1.2 ± 0.24 | 1.24 ± 0.27 | 1.18 ± 0.19 | 1.2 ± 0.16
E9PKP7 and related entries (UniProt P17480) | 1.02 ± 0.025 | 1 ± 0.036 | 1.08 ± 0.025 | 1.2 ± 0.079 | 1.31 ± 0.074 | 1.45 ± 0.066 | 1.5 ± 0.053 | 1.87 ± 0.13
E9PFH4 and related entries (UniProt Q9Y5L0) | 1.02 ± 0.041 | 1.02 ± 0.051 | 0.992 ± 0.059 | 0.983 ± 0.059 | 0.985 ± 0.054 | 0.952 ± 0.059 | 0.922 ± 0.032 | 0.919 ± 0.081
E9PPN3 and related entries (UniProt Q96KG9) | 1.035 ± 0.0018 | 1.04 ± 0.029 | 0.964 ± 0.017 | 0.987 ± 0.041 | 0.988 ± 0.028 | 1 ± 0.028 | 0.966 ± 0.036 | 0.928 ± 0.0099
F8W0J4 and related entries (UniProt O95619) | 0.948 ± 0.051 | 0.949 ± 0.064 | 1.01 ± 0.044 | 1 ± 0.093 | 1.02 ± 0.13 | 1.01 ± 0.094 | 1.07 ± 0.14 | 1.02 ± 0.14
G3V2X9 and related entries (UniProt P12814) | 0.974 ± 0.026 | 1 ± 0.021 | 0.973 ± 0.048 | 0.933 ± 0.037 | 0.93 ± 0.053 | 0.947 ± 0.053 | 0.933 ± 0.047 | 0.932 ± 0.068
G3V5N8 and related entries (UniProt Q9HBF4) | 1.05 ± 0.084 | 1.09 ± 0.083 | 1.05 ± 0.2 | 1.05 ± 0.12 | 0.965 ± 0.21 | 0.961 ± 0.066 | 0.979 ± 0.13 | 1.02 ± 0.17
G3V3M6 and related entries (UniProt P27695) | 0.908 ± 0.092 | 0.953 ± 0.12 | 0.898 ± 0.1 | 0.877 ± 0.1 | 0.866 ± 0.1 | 0.891 ± 0.089 | 0.872 ± 0.095 | 0.88 ± 0.11
E9PBE3 and related entries (UniProt Q8N3I7+E9PBE3) | 1.25 ± 0.36 | 1.15 ± 0.31 | 1.38 ± 0.44 | 1.08 ± 0.19 | 1.02 ± 0.33 | 1.09 ± 0.29 | 1.4 ± 0.44 | 1.14 ± 0.19
G3V1P3 and related entries (UniProt Q969J3+G3V1P3) | 0.981 ± 0.11 | 0.915 ± 0.04 | 1.01 ± 0.079 | 1.01 ± 0.06 | 0.991 ± 0.033 | 1 ± 0.026 | 0.9928 ± 0.0048 | 1.01 ± 0.076
E9PC90 and related entries (UniProt P14635) | 0.944 ± 0.031 | 0.911 ± 0.058 | 0.996 ± 0.056 | 0.984 ± 0.086 | 0.971 ± 0.068 | 0.991 ± 0.1 | 0.996 ± 0.076 | 1.03 ± 0.067
E9PF32 and related entries (UniProt A2RUS2) | 1.1 ± 0.17 | 1.13 ± 0.069 | 1.05 ± 0.038 | 1.1 ± 0.19 | 1.1 ± 0.12 | 1.1 ± 0.011 | 1 ± 0.14 | 1.01 ± 0.11
F5H0R1 and related entries (UniProt Q9H6E5) | 1 ± 0.044 | 0.96 ± 0.072 | 0.981 ± 0.033 | 0.993 ± 0.053 | 0.962 ± 0.059 | 0.964 ± 0.048 | 0.982 ± 0.062 | 1.01 ± 0.036
F8VZ44 and related entries (UniProt Q9NRG9) | 1.06 ± 0.097 | 0.9932 ± 0.0084 | 0.905 ± 0.024 | 0.9484 ± 0.0085 | 0.924 ± 0.03 | 0.874 ± 0.092 | 0.937 ± 0.071 | 1.04 ± 0.019
E9PLV1 and related entries (UniProt Q9NQV6) | 1.07 ± 0.12 | 1.18 ± 0.14 | 1.07 ± 0.13 | 1.08 ± 0.16 | 1.0337 ± 0.00049 | 1.05 ± 0.018 | 1.02 ± 0.07 | 0.98 ± 0.026

Single records (already shown):
G3V2X9 and related entries (UniProt P12814) reads NP40-soluble protein abundance (concentration: 0.1mM): 0.974 ± 0.026; NP40-soluble protein abundance (concentration: 0.5mM): 1 ± 0.021; NP40-soluble protein abundance (concentration: 1mM): 0.973 ± 0.048; NP40-soluble protein abundance (concentration: 2mM): 0.933 ± 0.037; NP40-soluble protein abundance (concentration: 4mM): 0.93 ± 0.053; NP40-soluble protein abundance (concentration: 6mM): 0.947 ± 0.053; NP40-soluble protein abundance (concentration: 8mM): 0.933 ± 0.047; NP40-soluble protein abundance (concentration: 10mM): 0.932 ± 0.068
E9PJ55 and related entries (UniProt Q9NUJ3) reads NP40-soluble protein abundance (concentration: 0.1mM): 1.07 ± 0.067; NP40-soluble protein abundance (concentration: 0.5mM): 1.08 ± 0.073; NP40-soluble protein abundance (concentration: 1mM): 1.08 ± 0.064; NP40-soluble protein abundance (concentration: 2mM): 1.03 ± 0.013; NP40-soluble protein abundance (concentration: 4mM): 1.06 ± 0.052; NP40-soluble protein abundance (concentration: 6mM): 1.02 ± 0.044; NP40-soluble protein abundance (concentration: 8mM): 0.977 ± 0.11; NP40-soluble protein abundance (concentration: 10mM): 0.958 ± 0.13
